We go through 14 targets from the supplement of paper PMC10849652.

Amino acid sequences for entries named in this document (tags omitted). A change or cut given only in a name is not applied to a line headed by its entry.
UniProt O75494: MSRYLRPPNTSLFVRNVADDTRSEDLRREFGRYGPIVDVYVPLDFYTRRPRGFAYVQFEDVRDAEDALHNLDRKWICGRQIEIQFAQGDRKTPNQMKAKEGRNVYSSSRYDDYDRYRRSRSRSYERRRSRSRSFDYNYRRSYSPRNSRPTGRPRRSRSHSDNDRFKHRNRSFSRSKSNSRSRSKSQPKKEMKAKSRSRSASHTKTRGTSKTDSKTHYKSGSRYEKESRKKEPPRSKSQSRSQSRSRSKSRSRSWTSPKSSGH
UniProt Q9Y5M8: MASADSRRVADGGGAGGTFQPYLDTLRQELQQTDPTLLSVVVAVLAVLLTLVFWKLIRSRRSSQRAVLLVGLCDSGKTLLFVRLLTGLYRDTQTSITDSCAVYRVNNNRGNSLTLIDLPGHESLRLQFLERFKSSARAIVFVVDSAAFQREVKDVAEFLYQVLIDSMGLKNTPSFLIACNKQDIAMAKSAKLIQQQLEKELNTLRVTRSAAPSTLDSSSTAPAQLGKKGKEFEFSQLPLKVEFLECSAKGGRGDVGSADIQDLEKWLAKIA
UniProt Q9UQ35: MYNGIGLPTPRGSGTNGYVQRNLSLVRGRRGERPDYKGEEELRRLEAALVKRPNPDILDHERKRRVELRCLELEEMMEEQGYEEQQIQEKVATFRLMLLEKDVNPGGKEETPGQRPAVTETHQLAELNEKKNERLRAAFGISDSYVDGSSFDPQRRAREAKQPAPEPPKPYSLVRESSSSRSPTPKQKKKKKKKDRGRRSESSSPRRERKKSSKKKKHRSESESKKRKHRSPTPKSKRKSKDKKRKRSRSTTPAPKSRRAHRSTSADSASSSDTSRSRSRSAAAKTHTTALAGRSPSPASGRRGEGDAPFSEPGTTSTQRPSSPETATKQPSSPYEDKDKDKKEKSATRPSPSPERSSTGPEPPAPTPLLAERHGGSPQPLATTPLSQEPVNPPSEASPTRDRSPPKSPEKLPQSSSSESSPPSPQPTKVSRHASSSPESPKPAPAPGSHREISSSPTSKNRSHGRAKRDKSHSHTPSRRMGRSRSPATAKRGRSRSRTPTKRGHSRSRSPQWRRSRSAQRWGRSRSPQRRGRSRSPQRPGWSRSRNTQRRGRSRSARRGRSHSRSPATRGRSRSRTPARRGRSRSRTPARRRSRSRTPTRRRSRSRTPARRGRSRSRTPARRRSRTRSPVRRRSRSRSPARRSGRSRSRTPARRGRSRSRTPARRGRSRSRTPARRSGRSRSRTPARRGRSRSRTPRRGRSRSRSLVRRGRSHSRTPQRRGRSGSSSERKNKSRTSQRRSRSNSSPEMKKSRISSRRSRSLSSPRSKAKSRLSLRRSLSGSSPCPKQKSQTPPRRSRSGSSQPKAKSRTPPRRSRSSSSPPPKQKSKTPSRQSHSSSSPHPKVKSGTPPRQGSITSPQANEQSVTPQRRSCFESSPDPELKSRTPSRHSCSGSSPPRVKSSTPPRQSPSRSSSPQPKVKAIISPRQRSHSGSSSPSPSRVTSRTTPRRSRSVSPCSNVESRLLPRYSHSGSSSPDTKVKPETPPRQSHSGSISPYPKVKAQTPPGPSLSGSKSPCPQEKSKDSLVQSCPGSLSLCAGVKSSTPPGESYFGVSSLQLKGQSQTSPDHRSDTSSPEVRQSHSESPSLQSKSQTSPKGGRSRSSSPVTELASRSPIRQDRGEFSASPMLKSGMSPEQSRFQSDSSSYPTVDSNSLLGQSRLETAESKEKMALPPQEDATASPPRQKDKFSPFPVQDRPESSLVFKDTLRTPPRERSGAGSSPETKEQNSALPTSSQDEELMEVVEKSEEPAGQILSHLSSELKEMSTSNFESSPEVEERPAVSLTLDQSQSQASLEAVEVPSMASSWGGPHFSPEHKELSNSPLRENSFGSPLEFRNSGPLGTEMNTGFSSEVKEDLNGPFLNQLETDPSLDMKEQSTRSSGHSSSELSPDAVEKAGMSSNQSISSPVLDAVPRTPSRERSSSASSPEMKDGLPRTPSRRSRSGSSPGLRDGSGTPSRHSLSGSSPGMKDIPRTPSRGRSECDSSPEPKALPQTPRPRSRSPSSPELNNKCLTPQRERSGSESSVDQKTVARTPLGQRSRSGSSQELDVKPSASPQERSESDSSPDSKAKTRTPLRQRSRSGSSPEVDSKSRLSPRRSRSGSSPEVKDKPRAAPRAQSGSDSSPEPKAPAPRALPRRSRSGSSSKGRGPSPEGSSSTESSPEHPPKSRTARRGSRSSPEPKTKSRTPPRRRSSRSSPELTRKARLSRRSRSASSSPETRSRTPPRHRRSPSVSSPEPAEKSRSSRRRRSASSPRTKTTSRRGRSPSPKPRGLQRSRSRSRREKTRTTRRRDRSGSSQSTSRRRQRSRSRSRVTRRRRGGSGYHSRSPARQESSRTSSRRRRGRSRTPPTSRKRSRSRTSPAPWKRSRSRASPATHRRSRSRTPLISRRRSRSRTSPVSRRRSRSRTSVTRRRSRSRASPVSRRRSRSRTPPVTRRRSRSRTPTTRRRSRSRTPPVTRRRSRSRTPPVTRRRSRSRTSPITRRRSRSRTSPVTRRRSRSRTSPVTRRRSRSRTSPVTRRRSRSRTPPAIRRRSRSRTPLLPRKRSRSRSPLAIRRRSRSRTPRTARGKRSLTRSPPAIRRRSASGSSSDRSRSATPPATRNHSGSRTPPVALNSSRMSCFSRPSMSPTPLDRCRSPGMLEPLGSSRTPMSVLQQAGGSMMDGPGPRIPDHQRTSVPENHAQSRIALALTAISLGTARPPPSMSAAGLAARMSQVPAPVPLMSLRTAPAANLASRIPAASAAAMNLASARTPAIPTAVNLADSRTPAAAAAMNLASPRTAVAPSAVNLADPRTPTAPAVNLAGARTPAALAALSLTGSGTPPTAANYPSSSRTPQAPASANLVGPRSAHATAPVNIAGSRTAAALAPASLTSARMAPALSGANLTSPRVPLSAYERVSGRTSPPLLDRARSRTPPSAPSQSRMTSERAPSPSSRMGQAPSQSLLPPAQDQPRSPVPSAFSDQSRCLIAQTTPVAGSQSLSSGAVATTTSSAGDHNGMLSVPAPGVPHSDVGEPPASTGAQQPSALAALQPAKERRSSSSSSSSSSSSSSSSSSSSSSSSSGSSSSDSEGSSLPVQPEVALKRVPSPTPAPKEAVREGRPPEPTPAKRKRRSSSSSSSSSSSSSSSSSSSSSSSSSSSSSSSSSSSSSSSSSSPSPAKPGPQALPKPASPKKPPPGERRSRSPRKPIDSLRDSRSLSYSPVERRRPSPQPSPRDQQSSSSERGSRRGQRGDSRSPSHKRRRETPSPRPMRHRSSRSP
UniProt Q9H254, whole entry, looked up: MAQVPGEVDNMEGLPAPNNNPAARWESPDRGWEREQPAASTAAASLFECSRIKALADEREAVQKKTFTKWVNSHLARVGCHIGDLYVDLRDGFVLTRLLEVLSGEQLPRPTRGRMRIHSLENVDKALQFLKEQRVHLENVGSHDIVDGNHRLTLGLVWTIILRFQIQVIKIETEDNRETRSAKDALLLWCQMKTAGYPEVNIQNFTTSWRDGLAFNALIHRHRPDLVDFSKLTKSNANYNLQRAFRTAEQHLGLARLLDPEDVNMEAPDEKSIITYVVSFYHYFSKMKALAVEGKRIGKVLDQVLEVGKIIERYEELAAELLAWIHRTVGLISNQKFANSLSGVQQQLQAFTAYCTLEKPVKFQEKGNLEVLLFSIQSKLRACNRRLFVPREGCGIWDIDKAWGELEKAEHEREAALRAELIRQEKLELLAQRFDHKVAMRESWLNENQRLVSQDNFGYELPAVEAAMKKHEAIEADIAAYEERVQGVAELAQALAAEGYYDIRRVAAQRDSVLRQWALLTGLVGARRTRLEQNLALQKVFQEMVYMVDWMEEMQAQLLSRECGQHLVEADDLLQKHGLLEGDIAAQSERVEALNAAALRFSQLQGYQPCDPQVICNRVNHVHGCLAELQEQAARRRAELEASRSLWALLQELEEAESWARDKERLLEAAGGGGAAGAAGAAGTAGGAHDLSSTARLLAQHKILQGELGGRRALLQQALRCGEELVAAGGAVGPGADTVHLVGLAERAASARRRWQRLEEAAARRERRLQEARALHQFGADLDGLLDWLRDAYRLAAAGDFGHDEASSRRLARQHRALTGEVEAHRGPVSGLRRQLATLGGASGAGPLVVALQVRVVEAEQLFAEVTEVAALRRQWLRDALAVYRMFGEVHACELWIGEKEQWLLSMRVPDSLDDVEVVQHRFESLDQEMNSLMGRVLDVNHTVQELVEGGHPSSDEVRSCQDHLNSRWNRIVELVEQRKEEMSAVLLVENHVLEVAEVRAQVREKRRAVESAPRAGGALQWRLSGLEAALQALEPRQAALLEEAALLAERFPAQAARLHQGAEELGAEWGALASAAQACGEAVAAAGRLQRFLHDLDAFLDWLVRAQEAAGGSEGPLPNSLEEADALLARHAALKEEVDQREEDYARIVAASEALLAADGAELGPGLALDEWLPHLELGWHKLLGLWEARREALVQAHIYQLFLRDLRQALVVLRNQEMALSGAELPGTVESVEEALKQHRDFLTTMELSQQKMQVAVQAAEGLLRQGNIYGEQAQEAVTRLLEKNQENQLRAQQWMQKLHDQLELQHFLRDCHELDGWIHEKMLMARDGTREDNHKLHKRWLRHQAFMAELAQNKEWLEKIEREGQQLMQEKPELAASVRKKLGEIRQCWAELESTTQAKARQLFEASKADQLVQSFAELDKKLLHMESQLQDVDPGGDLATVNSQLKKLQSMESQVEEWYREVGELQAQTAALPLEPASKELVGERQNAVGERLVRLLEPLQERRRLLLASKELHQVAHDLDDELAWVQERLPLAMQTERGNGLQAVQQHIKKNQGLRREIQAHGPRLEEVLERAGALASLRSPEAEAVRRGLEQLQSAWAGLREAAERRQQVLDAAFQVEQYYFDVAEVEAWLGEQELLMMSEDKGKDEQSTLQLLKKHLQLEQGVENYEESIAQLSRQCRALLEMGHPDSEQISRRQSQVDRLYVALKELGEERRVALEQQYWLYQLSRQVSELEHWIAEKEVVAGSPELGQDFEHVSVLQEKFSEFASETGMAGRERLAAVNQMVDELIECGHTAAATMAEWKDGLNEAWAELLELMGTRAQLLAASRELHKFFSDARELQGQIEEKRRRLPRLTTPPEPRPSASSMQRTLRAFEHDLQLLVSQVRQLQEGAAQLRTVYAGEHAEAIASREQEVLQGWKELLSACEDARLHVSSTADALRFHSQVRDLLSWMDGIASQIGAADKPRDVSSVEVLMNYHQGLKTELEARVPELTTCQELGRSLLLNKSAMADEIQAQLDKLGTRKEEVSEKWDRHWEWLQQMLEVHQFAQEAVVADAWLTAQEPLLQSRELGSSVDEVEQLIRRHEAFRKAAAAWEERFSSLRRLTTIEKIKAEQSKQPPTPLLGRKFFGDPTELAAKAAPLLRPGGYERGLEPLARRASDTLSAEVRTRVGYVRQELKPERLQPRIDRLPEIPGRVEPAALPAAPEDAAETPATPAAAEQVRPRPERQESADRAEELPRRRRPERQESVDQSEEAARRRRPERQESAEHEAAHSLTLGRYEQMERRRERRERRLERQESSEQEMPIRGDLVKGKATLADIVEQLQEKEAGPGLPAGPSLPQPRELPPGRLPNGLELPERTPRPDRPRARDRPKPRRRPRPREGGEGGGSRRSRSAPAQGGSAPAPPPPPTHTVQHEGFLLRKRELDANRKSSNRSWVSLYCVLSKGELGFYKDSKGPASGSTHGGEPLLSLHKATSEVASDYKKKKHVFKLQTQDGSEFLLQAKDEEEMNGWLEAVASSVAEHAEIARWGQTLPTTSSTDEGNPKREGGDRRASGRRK
UniProt P51571: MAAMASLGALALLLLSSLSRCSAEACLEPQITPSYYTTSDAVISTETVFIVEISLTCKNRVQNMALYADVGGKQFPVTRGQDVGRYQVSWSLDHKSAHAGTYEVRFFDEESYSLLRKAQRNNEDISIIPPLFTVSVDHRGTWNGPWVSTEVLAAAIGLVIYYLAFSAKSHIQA
UniProt O95793: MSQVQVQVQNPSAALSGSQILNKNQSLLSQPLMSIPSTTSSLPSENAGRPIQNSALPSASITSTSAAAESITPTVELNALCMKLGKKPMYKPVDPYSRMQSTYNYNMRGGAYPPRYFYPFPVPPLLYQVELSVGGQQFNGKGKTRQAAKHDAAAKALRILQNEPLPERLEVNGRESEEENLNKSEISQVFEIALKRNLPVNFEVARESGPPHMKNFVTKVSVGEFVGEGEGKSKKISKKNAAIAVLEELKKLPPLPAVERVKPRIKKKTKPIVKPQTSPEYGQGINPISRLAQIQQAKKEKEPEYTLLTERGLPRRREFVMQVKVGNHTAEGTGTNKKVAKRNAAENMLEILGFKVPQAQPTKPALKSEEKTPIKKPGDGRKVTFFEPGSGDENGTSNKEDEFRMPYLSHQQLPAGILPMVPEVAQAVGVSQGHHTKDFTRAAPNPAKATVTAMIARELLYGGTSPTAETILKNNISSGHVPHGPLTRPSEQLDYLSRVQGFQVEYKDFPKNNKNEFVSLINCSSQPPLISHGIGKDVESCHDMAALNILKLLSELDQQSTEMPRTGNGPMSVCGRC

Some of the results follow.

Common to all, as to assay: log2 fold change, soluble protein after heating vs DMSO (PISA); higher = thermal stabilisation; K562 cells, 10 uM, 30 min; active = over 0.2 and 3.5 SD of the protein, either way, in both replicates (recomputed)
Compound in assay [1]: NC(=O)Nc1cc(-c2cccc(F)c2)sc1C(=O)N[C@H]1CCCNC1
A digest of the protocol: (§1)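 K562 cells at 2×10^6 cells/mL were treated for 30 min with 10 μM compound, and aliquots were heated for 3 min over 48°C-58°C before pooling. Extraction used PBS with 0.5% NP-40 at 4°C, and soluble protein was the supernatant after 21,000xg for 90 min, measured by TMTpro 16plex LC-MS/MS with channel sums equalised. Thermal stability values, relative to control samples and from duplicates, are log2 fold changes.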

Compound in assay [2]: NC(=O)c1cnc(N[C@@H]2CCCC[C@@H]2N)nc1Nc1cccc(-n2nccn2)c1
An outline of the steps:
as §1

Compound in assay [3]: NC1(c2ccc(-c3nc4ccn5c(=O)[nH]nc5c4cc3-c3ccccc3)cc2)CCC1
A digest of the protocol: as §1

Compound in assay [4]: NCC(=O)Nc1ccc(-n2nc(C(F)(F)F)cc2-c2ccc3c(ccc4ccccc43)c2)cc1
A digest of the protocol:
as §1

Compound in assay [5]: Nc1ccccc1NC(=O)c1ccc(CNC(=O)OCc2cccnc2)cc1 [entinostat]
A digest of the protocol: as §1

Compound in assay [6]: O=C(CCCCCCC(=O)Nc1ccccc1)NO [vorinostat]
An outline of the steps:
as §1

Compound in assay [7]: O=C(CCCCCCNC(=O)c1cnc(N(c2ccccc2)c2ccccc2Cl)nc1)NO [citarinostat]
A digest of the protocol:
as §1

Compound in assay [8]: O=C(O)c1ccc2c(c1)nc(Nc1cccc(Cl)c1)c1ccncc12 [silmitasertib]
An outline of the steps: as §1

Compound in assay [9]: O=C1NC(=O)C(c2cnc3ccccn23)=C1c1cn2c3c(cc(F)cc13)CN(C(=O)N1CCCCC1)CC2
An outline of the steps: as §1

Compound in assay [10]: c1cc(OCCN2CCCCC2)cc(-c2n[nH]c3ccc(-c4nnc[nH]4)cc23)c1
A digest of the protocol: as §1

Compound in assay [11]: c1cn2cc(-c3ccc4cn[nH]c4c3)nc(Nc3ccc(N4CCOCC4)cc3)c2n1 [entospletinib]
A digest of the protocol: as §1

For the target STAT3 (UniProt P40763), the log2 fold change in assay [1] is inactive: -0.001; in assay [2], inactive: -0.047; in assay [3], inactive: -0.2; in assay [4], inactive: -0.092; in assay [5], inactive: 0.089; in assay [6] it was inactive: 0.101. Besides, the log2 fold change in assay [7] is inactive: 0.062; in [8] it was inactive: 0.103; in assay [9], inactive: -0.036; in [10] it was inactive: -0.016.

Turning to SRSF10 (UniProt O75494), the log2 fold change in assay [1] was inactive: 0.059; in assay [2], inactive: -0.096; in assay [3], inactive: 0.444; in assay [4], inactive: 0.063; in assay [5] it was inactive: -0.047; in assay [6], inactive: 0.048. Moreover, the log2 fold change in assay [7] is inactive: -0.153; in [8] it was inactive: 0.103; in [9] it was inactive: 0.304; in [10], inactive: -0.152.

SRPRB (UniProt Q9Y5M8): the log2 fold change in assay [1] is inactive: 0.048; in [2], inactive: 0.028; in [3], inactive: -0.056; in assay [4], inactive: -0.038; in assay [5], inactive: 0.045; in assay [6], inactive: 0.029. Besides, the log2 fold change was inactive: 0.029 in assay [7], inactive: -0.007 in assay [8], inactive: -0.014 in [9] and inactive: 0.045 in assay [10].

Take SRRM2 (UniProt Q9UQ35): the log2 fold change was inactive: -0.004 in assay [1]; inactive: -0.055 in [2]; inactive: 0.005 in assay [3]; inactive: -0.036 in [4]; inactive: 0.025 in assay [5]; inactive: 0.226 in assay [6]. Further, the log2 fold change is inactive: 0.071 in assay [7], inactive: -0.141 in assay [8], inactive: -0.225 in assay [9] and inactive: -0.25 in assay [10].

As for SRSF11 (UniProt Q05519), the log2 fold change in [1] was inactive: -0.183; in assay [2], inactive: -0.032; in assay [3], inactive: -0.063; in assay [4], inactive: -0.074; in [5], inactive: 0.018; in [6] it was inactive: 0.06. Also, the log2 fold change in assay [7] is inactive: 0.046; in assay [8], inactive: -0.099; in [9], inactive: 0.037; in assay [10] it was inactive: -0.038.

As to SPTBN4 (UniProt Q9H254), the log2 fold change is inactive: 0 in assay [1]; inactive: -0.09 in [2]; inactive: -0.095 in [3]; inactive: 0.033 in [4]; inactive: 0.014 in assay [5]; inactive: 0.026 in assay [6]. Further, the log2 fold change in assay [7] is inactive: 0.05; in assay [8] it was inactive: 0.062; in [9] it was inactive: 0.129; in assay [10], inactive: -0.013.

On to STK26 (UniProt Q9P289), for which the log2 fold change is inactive: 0.07 in assay [1]; inactive: -0.005 in assay [2]; inactive: -0.111 in assay [3]; inactive: -0.057 in assay [4]; inactive: -0.063 in assay [5]; inactive: 0.034 in [6]. Further, the log2 fold change in [7] is inactive: 0.092; in [8] it was inactive: 0.069; in assay [9], inactive: -0.017; in assay [10] it was inactive: -0.007.

STARD7 (UniProt Q9NQZ5): the log2 fold change was inactive: -0.048 in assay [1]; inactive: -0.113 in [2]; inactive: -0.088 in [3]; inactive: 0.012 in assay [4]; inactive: 0.008 in [5]; inactive: 0.114 in assay [6]. Further, the log2 fold change in assay [7] is inactive: 0.073; in assay [8] it was inactive: -0.011; in assay [9] it was active: 0.341; in [10], inactive: -0.089.

SSR4 (UniProt P51571): the log2 fold change in assay [1] is inactive: 0.032; in [2], inactive: -0.013; in assay [3], inactive: -0.011; in assay [4], inactive: 0.023; in [5], inactive: -0.011; in assay [6], inactive: 0. The log2 fold change in [7] is inactive: 0.019; in assay [8], inactive: -0.029; in [9], inactive: 0.004; in [10], inactive: -0.056.

SRR (UniProt Q9GZT4): the log2 fold change was inactive: 0.044 in assay [1]; inactive: 0.025 in assay [2]; inactive: -0.069 in [3]; inactive: -0.006 in assay [4]; inactive: 0 in [5]; inactive: -0.077 in assay [6]. Besides, the log2 fold change in [7] is inactive: -0.023; in assay [8], inactive: -0.013; in assay [9] it was inactive: 0.04; in [10], inactive: 0.035; in assay [11], inactive: 0.079.

Take SPTBN2 (UniProt O15020): the log2 fold change in assay [1] was inactive: -0.088; in assay [2], inactive: -0.068; in assay [3] it was inactive: -0.096; in assay [4], inactive: 0.044; in assay [5], inactive: 0.123; in assay [6] it was inactive: -0.014. The log2 fold change in [7] was inactive: -0.055; in assay [8], inactive: 0.167; in [9], inactive: 0.062; in [10], inactive: -0.075; in assay [11] it was inactive: 0.021.

On to STAU1 (UniProt O95793), for which the log2 fold change in assay [1] is inactive: 0.068; in assay [2], inactive: 0.094; in assay [3] it was inactive: 0.325; in assay [4], inactive: 0.105; in assay [5], inactive: -0.063; in [6] it was inactive: 0.008. Besides, the log2 fold change in assay [7] is inactive: -0.133; in [8], inactive: 0.182; in [9] it was inactive: 0.211; in assay [10] it was inactive: -0.349; in assay [11], inactive: 0.048.

For SPRYD7 (UniProt Q5W111), the log2 fold change in assay [1] is inactive: -0.045; in [2], inactive: -0.064; in assay [3] it was inactive: -0.041; in assay [4] it was inactive: 0.024; in [5], inactive: 0.028; in assay [6] it was inactive: -0.16. For the same target, the log2 fold change in [7] was inactive: 0.048; in assay [8], inactive: 0.023; in assay [9], inactive: -0.012; in assay [10], inactive: 0.039; in [11] it was inactive: -0.11.

With SPPL2B (UniProt Q8TCT7), the log2 fold change in assay [1] is inactive: 0.06; in assay [2], inactive: 0.009; in assay [3], inactive: -0.031; in [4], inactive: -0.016; in [5], inactive: -0.052; in assay [6], inactive: -0.013. Further, the log2 fold change in [7] is inactive: 0.05; in assay [8], inactive: -0.037; in assay [9], inactive: 0.029; in assay [10], inactive: -0.025.
